## Library screen at single concentrations

Measurements from “University of Dundee, Small-Polar-MMV Screening Library” (2021), ChEMBL document CHEMBL3988442.

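Whole-parasite assay of Trypanosoma brucei over 72 hours; the read-out is not stated. Tested at 30 µM. The record gives no direction; compounds that gave an IC50 in retests scored well above the rest, so higher reads as stronger inhibition. Values scatter widely below zero; nearly all retest evidence comes from the higher of the two concentrations used. Size under these conditions: about 64,000 compounds, about 940 of them at 50% or above in at least one test.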

Results are given as percent effect.
The controls that fix the scale are not given in the record; negative values are as filed.
Compounds were drawn at random from those tested, without regard to their results.

compound,Percent Effect
CC(C)c1nccn1C1CCCN(C(=O)c2cnn(C)c2C2CC2)C1 (centres undefined),35.11
Cn1cccc1C(=O)NS(=O)(=O)c1cnn(-c2ccccc2F)c1,-48.6
CC(=O)N1CCN(C(=O)NCc2ccccc2Cn2ccnc2)CC1,-42.5
COC(=O)c1ccc(OC)c(CN2CCN(CC(C)C)C(=O)C2C)c1 (centres undefined),-26.69
CCC(O)CN1CCN(C(=O)CCc2c(C)noc2Cl)CC1 (centres undefined),13.45
CCCNC(=O)c1nn(CC)cc1NC(=O)c1c(C)nn(C)c1C,45.33
O=C(Nc1ccccc1OCC1CCCCO1)c1ccc(O)nc1 (centres undefined),3.606
c1cc(CN2CCCCC2)cc(NCc2cc[nH]n2)c1,-62.62
Cc1cc(OC(F)F)c(C(=O)N2CCC(CN(C)C)CC2)s1,2.8
CCC(=O)N(CCN(C)C)Cc1ccc(F)c(F)c1,-26.85
COc1cccc(Oc2nc(C)c(C(=O)O)s2)c1OC,-60.98
NC1CCN(S(=O)(=O)c2ccc(C(=O)N3CCSCC3)cc2)C1 (centres undefined),-0.02723
O=C(O)C(F)(F)F.[H][C@@]12C[C@@H](c3nc(C)cs3)O[C@]1([H])CN(c1ncc(F)cn1)C2,-44.09
Cc1ccccc1-c1noc(CN2CC(n3cccn3)C2)n1,-6.466
CCOc1ccc(C(=O)NS(=O)(=O)c2cncc(Br)c2)cc1OC,-7.439
Cn1ccnc1CN1CCC2(CC1)CC(N1CCCC1)c1ccccc12 (centres undefined),-25.72
CS(=O)(=O)NCC1(c2ccccc2Br)CC1,2.949
CN1CCCCC1(C)C(=O)N1CCC(c2ccccn2)CC1 (centres undefined),-3.578
COCCOCC(C)NC(=O)COc1nn(C)c2nc(C)cc(C)c12 (centres undefined),-9.632
O=C(CC1CCCC1)Nc1ccc(-n2cc(Br)cn2)nc1,-19.86
O=C(Cn1ccc2sccc2c1=O)NC1CCCCC1,8.897
O=C(C1=COCCO1)N1CC(Oc2nc3c(Cl)cccc3s2)C1,-13.24
CCC(NCc1ccccc1Cl)c1ccccc1OCC(=O)NC (centres undefined),11.47
CNC(=O)CN1CCOCC12CCN(C(=O)c1ccc(C)cc1)CC2.O=C(O)C(F)(F)F,26.83
CN(C)CCCNC(=O)C(c1cccc(F)c1)N(C)C (centres undefined),-31.61
Cn1cc(CN(CC2(O)CNCCOC2)C2CCCCC2)cn1 (centres undefined),-21.47
CCCNC(=O)CN1CCC(NCc2csc(C(C)C)n2)CC1,-7.317
CCS(=O)(=O)NCC1OCCc2cn(CC3CCOCC3)nc21 (centres undefined),-12.68
Cn1nnnc1SCC1Cc2ccccc2O1 (centres undefined),-44.3
c1cnc(-c2nc(CNCCn3cccn3)cs2)nc1,-35.56
Cn1ccnc1CCNS(=O)(=O)c1cccc(Br)c1,-34.69
CCOCc1ncn2c1CN(C(=O)Nc1ccccc1)CC2,-15.07
CN1C[C@H](O)C[C@H]1c1nc(-c2ccc3c(c2)OCO3)no1,-16.57
COc1cc(N2CCC3(CCN(Cc4nccs4)CC3)C2)ncn1.O=C(O)C(F)(F)F,-86.29
Cc1cnc(CN(C)C2CCN(Cc3nc4ccccc4n3C)C2)o1 (centres undefined),11.08
Cc1nc(SC2CCN(c3sccc3C#N)C2=O)oc1C (centres undefined),-17.88
COCCOc1cccc(C(=O)N2CCCC(n3ccnc3)C2)c1 (centres undefined),2.448
CN(Cc1nnc2n1CCC2)C(=O)NCCc1ccc2c(c1)OCO2,-27.79
COCc1cnc2n1CCN(C(=O)c1ocnc1C)C2C (centres undefined),-26.31
CNC(=O)CN(C)C(=O)Cc1csc(C(C)C)n1,70.2
COc1ccccc1C(=O)N1CC2(COC(C)(C)OC2)C1,-3.448
O=C(O)C(F)(F)F.[H][C@]12CCC[C@@H](CNc3ncccn3)[C@@]1([H])CN(Cc1cc[nH]n1)C2,4.569
O=c1[nH]c(NCCCO)nc2c1C1(CCCC1)Cc1ccccc1-2,-11.99
CC(=O)N[C@@H]1CN(Cc2ccccc2C(=O)O)C[C@H]1C(C)C,-1.026
FC(F)(F)c1cc(C2CCCN(c3cnccn3)C2)n2ccnc2n1 (centres undefined),-0.5561
Cc1cc(C(=O)N2CCC(CCn3cccn3)CC2)c(C)o1,-2.47
CCC(=O)N1CCc2[nH]cnc2C12CCN(C(=O)c1snnc1C)CC2,13.62
CS(=O)(=O)N1CCC(c2nnc(CN3CCCC3)n2C2CC2)CC1,-25.98
O=C(Cc1n[nH]c(-c2cncc(Br)c2)n1)NCc1ccncc1,-24.21
c1ccc(OCCCn2ccnc2-c2cn(C3CCNCC3)nn2)cc1,6.766
Cc1cn2c(n1)CCC(NC(=O)c1cc[nH]n1)C2 (centres undefined),-6.046
Fc1ccc(Oc2ccc(CNCC3CNc4ccnn4C3)cn2)cc1 (centres undefined),22.41
CN(Cc1ccccc1)c1cnn(CC2CCCCO2)c(=O)c1 (centres undefined),-14.24
CCc1cnccc1C(=O)Nc1ccc(C(N)=O)nc1,-1.794
O=C(O)C(F)(F)F.O=S(=O)(C1CC1)N1CCc2ncnc(N3CCCC3)c2CC1,-2.705
CN(C)CCn1nc(C2CCN(S(=O)(=O)N(C)C)C2)c2cccnc21 (centres undefined),-2.822
Cc1nsc(NC(=O)NC2CCCOC2)n1 (centres undefined),-65
Cn1nc(COCC2CC2)c2c1CCN(Cc1ccco1)C2.O=C(O)C(F)(F)F,-21.64
[H][C@@]12C=C[C@@]([H])(C1)[C@H](C(=O)N1CCN(c3cc(C)nc(CC)n3)CC1)C2,-11.96
Cn1cnnc1SCCCNC(=O)Nc1ncccn1,-17.8
COc1ccccc1OCCNS(=O)(=O)N1CCOCC1,-16.37
O=S(=O)(NCCC(O)c1ccoc1)c1ccc(Cl)s1 (centres undefined),-27.54
COc1cc(C2(C(=O)NC3CCN(CC4CC4)CC3)CC2)ccc1C,13.62
Cc1ccc2c(c1)C(NCc1ncnn1C)CC2 (centres undefined),-59.25
Cc1ccc(NC(=O)NC(C)c2nc[nH]n2)cc1 (centres undefined),-32.66
[H][C@@]12C[C@H](C)O[C@]1([H])CCN(C(=O)c1occc1C)C2,12.99
[H][C@]12CC[C@]([H])(CN(CC(=O)N(C)C)C1)N(Cc1ccc(Cl)cc1Cl)C2,-34.4
O=C(C1CC1)N1CCCCCC1C1CCN(c2ncccn2)CC1 (centres undefined),-4.7
O=C(O)C(F)(F)F.[H][C@@]12CN(Cc3ccc(C)cc3)C[C@]1([H])CN(c1ncc(F)cn1)C2,-30.86
CCc1n[nH]c(SCC(=O)N2CCc3[nH]nc(C4CCC4)c3C2)n1,-32.9
CNC(=O)c1ccc(CN(C)c2ccc(C(F)(F)F)cn2)cc1,-30.69
CCCn1ccnc1SCC(=O)NC(Cc1ccccc1)C(C)=O (centres undefined),-28.42
NCCc1nc(N[C@@H](CO)c2ccccc2)c2ccccc2n1,-62.36
O=C(O)c1csc(S(=O)(=O)Nc2c(F)cccc2-n2cccn2)c1,46.39
O=C(c1ccno1)N1CCOC[C@H](Oc2ccccc2)C1,-8.213
COc1ccc(C(=O)N2CCOCC(CO)C2)cc1N1CCOCC1 (centres undefined),-13.11
CCOCC1COCCC12CCN(C(=O)CS(C)(=O)=O)CC2 (centres undefined),-50.3
CC(=O)N1CCCC1c1nc(CN(C)C(=O)C(C)C)cc(N(C)C)n1 (centres undefined),5.138
CSc1ccc(CNCCS(=O)(=O)N2CCOCC2)cc1,-26.2
CCSc1cc(C(=O)NCCc2nnc(-c3ccco3)[nH]2)ccn1,22.16
Cc1cccc(C(=O)N2CCC3(CC2)CC(c2ccccc2)C(=O)N3)c1 (centres undefined),12.8
O=S(=O)(C1CC1)N1Cc2nccn2CC(Cn2cncn2)C1 (centres undefined),-41.46
Cc1nn(C2CCS(=O)(=O)C2)c(C)c1CC(=O)NCc1ccccc1Cl (centres undefined),-11.11

Some entries from above, unchanged:

| compound | Percent Effect |
|---|---|
| `O=C(C1=COCCO1)N1CC(Oc2nc3c(Cl)cccc3s2)C1` | -13.24 |
| `Cn1nc(COCC2CC2)c2c1CCN(Cc1ccco1)C2.O=C(O)C(F)(F)F` | -21.64 |
| `Cn1cc(CN(CC2(O)CNCCOC2)C2CCCCC2)cn1` (centres undefined) | -21.47 |
| `CCS(=O)(=O)NCC1OCCc2cn(CC3CCOCC3)nc21` (centres undefined) | -12.68 |
| `CCSc1cc(C(=O)NCCc2nnc(-c3ccco3)[nH]2)ccn1` | 22.16 |